This data set can be described thus: Droplet sliding time on E7-infused (LC-infused) PTFE SLIPS. As to conditions: for sliding time: PBS + 1% DMSO.
Setting [1] is: water droplets, E7-infused SLIPS, 20°.
The mark [2] stands for this setting: 3-oxo-C12-AHL 100 μM and 3-oxo-C12-HS 250 μM, respectively.

“3-(3-Hydroxyalkanoyloxy) alkanoic acid [HAA]”: the sliding time (≥12.5 μg/mL HAA, 50 μL, 4 cm, 20°) is roughly 18 s.

For `CCCCCCCCCCCC[N+](C)(C)C.[Br-]` [DTAB, dodecyl-trimethylammonium bromide], under setting [1], the “bulk surfactant concentration giving average sliding time 58-62 s (~1 min)” value was 3 mM.

With `CCCCCCCCCC(=O)CC(=O)N[C@@H]1CCOC1=O` [3-oxo-C12-AHL], the sliding time under setting [2] is given as roughly 12 s.

As to `CCCCCCCCCC(=O)CC(=O)N[C@@H](CCO)C(=O)O` [3-oxo-C12-HS], under setting [2], the sliding time is roughly 12 s.

`CCCCCCCCCCCCCCCC[N+](C)(C)C.[Br-]` [HTAB, hexadecyltrimethylammonium bromide]: the “surfactant concentration required for average sliding time of ~60 s” value stood at 100 µM. For the same compound, the “times lower concentration than DTAB for ~60 s sliding time” value under setting [1] is roughly 30 times.

Values taken from US12291651B2, “Liquid crystal-infused slippery anti-fouling surfaces” (priority 2021, dated 2025).
